Results are given in words; binding and its absence hold for the method and conditions named. Some results given as binding are weak or reduced against the parent protein; the word gives no strength.
Target: T1, α2-macroglobulin (UniProt P01023)
T1 sequence (looked up): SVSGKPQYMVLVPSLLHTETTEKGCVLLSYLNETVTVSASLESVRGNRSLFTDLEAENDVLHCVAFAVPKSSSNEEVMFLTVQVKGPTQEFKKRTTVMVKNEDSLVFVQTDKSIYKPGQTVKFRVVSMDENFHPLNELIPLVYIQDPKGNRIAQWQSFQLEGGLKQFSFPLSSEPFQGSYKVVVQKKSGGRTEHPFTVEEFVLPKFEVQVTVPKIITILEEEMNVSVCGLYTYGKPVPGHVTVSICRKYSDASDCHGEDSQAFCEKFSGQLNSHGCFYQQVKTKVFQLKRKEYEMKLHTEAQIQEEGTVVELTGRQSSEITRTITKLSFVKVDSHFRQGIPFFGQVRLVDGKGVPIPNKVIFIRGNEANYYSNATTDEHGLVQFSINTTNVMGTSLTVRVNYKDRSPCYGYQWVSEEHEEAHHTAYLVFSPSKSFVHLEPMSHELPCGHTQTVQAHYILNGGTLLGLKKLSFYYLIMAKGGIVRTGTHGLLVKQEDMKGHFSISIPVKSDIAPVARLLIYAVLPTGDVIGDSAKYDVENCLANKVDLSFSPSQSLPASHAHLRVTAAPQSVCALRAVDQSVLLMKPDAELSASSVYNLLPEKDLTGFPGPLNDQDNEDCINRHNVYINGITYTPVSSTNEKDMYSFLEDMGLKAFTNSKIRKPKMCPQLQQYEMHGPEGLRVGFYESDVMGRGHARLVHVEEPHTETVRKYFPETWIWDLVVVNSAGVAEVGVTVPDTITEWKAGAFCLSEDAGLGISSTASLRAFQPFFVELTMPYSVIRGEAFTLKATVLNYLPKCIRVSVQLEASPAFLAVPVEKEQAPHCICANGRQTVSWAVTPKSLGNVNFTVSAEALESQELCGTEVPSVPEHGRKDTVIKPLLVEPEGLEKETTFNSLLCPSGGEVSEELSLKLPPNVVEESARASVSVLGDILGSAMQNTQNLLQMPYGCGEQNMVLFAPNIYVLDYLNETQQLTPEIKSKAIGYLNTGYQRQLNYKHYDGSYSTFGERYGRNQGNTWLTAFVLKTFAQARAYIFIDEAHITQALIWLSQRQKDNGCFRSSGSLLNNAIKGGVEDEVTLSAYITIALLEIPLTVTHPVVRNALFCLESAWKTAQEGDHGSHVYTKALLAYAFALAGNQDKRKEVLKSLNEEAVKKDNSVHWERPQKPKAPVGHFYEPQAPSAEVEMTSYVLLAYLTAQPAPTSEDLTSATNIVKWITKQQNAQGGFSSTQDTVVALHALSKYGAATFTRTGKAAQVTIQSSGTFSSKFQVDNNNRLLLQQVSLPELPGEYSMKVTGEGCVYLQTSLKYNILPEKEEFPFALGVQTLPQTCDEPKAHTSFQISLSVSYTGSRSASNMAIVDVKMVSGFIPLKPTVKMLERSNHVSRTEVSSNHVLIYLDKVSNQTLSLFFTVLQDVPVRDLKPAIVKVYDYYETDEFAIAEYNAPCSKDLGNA
Experiment: SPR (Biacore 3000), α2-macroglobulin amine-coupled to a CM5 chip, analyte injected at 1500 nM, 10 min association and 9 min dissociation, reference flow cell subtracted

Sequences of proteins named here, by UniProt entry; tags and fusion partners are left off. A change or cut given only in a name is not applied to a line headed by its entry.
UniProt P01241: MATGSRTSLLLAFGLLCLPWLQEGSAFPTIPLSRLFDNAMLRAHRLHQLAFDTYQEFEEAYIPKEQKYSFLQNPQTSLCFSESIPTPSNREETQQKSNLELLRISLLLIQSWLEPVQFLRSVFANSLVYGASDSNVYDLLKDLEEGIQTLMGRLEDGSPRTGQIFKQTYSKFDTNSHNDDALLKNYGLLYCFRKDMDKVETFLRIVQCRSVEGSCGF

binding: binds
Substance: OGP-hGH (from UniProt P01241 27-217)
